Where two headings read alike, the source gives them in different places. No constants are given. Whether binding was seen depends on the method and setting. Binding seen in cells or lysates may run through a third protein. Some entries that bind do so weakly or less than the wild type.
Key:
Experiment in all cases: co-IP
[1] = molecular target: endogenous STING (human (endogenous in ARPE-19 and SHSY5Y)) (UniProt Q86WV6)
[2] = molecular target: endogenous STING (human (endogenous in ARPE-19 and SHSY5Y)) (UniProt Q86WV6); remark: listed apart in the source
FLAG-STING (full-length) = FLAG-STING (full-length) (UniProt Q86WV6)

Sequences of proteins named here, by UniProt entry; tags and fusion partners are left off.
UniProt Q86WV6: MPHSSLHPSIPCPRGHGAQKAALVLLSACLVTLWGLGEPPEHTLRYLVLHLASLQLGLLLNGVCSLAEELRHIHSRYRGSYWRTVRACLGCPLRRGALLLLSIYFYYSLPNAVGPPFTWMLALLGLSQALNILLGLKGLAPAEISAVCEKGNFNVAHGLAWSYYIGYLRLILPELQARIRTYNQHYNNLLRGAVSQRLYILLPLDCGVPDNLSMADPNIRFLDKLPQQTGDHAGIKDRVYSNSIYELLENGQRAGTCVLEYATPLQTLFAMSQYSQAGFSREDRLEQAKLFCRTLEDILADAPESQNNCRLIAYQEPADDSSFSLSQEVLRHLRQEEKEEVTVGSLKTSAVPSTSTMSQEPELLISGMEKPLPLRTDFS

Measured: binding

B1: endogenous Midnolin (protein, UniProt Q504T8 1-468)
chain: MEPQPGGARSCRRGAPGGACELGPAAEAAPMSLAIHSTTGTRYDLAVPPDETVEGLRKRLSQRLKVPKERLALLHKDTRLSSGKLQEFGVGDGSKLTLVPTVEAGLMSQASRPEQSVMQALESLTETQVSDFLSGRSPLTLALRVGDHMMFVQLQLAAQHAPLQHRHVLAAAAAAAAARGDPSIASPVSSPCRPVSSAARVPPVPTSPSPASPSPITAGSFRSHAASTTCPEQMDCSPTASSSASPGASTTSTPGASPAPRSRKPGAVIESFVNHAPGVFSGTFSGTLHPNCQDSSGRPRRDIGTILQILNDLLSATRHYQGMPPSLAQLRCHAQCSPASPAPDLAPRTTSCEKLTAAPSASLLQGQSQIRMCKPPGDRLRQTENRATRCKVERLQLLLQQKRLRRKARRDARGPYHWSPSRKAGRSDSSSSGGGGSPSEASGLGLDFEDSVWKPEVNPDIKSEFVVA
binds: [1] | [2] | FLAG-STING (full-length)

Reference: doi:10.1101/2025.01.13.632693
